Results reported in patent US20140206846A1.
These are yes or no findings as the source states them, for the method shown. Some entries that bind do so weakly or less than the wild type.

Target: T1, human VEGF (human), P15692
T1 chain: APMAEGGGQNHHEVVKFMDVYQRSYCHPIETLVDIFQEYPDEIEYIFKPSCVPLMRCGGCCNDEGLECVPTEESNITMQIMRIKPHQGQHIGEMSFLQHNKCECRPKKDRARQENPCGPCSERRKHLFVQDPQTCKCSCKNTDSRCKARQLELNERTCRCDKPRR
Test: Biacore SPR, Fab captured by anti-light chain antibody, antigen as analyte
Settings: remark: other sources report otherwise

binding: binds
B1: VH6L (bispecific antibody, V domains shown)
VL: NIQKTQSPSSLSASVGDRVTITCRALWHISSYLAWYQQKPGKAPKLLIYAASHLHYGVPSRFSGSGSGTDFTLTISSLQPEDFATYYCQQYSGLPYTFGQGTKVEIK
VH: YYQLVESGGGLVQPGGSLRLSCAADGFLFSGYAMSWIRQAPGKGLEWIGQISGSGGSTVYNYNVLGRFTISRDNSKNTLYLQMNSLRAEDTAVYYCARDTGYFDHWGQGTLVTVSS
